Measurements from PubChem BioAssay AID2685 (National Center for Advancing Translational Sciences (NCATS), 2010).
This is one part of the list. The main result of the screen is listed elsewhere. These columns were measured beside it and carry no call. The list favours compounds with an active or inconclusive main result. The note in brackets gives the kind of curve behind each potency; many fits are weak.

Experiment: qHTS Assay for Lipid Storage Modulators in Drosophila S3 Cells;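 as to cell number change: cells counted by Cell Tracker Red CMTPX staining in the red channel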
Conditions: BODIPY lipid droplet fluorescence, 18-24 h; for cell number change: measured here: cell count max response, cells fed with added oleic acid
Method in brief: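 Laser-scanning cytometry quantifies lipid droplet accumulation (500–530 nm total intensity; droplet/cell object ratio) in oleic acid-fed (400 uM added) Drosophila S3 cells treated with a concentration series. 20 uM Triacsin C defined 100% inhibition.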

[1] = measured here: cell number channel AC50, cells fed with added oleic acid
[2] = measured here: lipid fluorescence (Fed channel) AC50, cells fed with added oleic acid

| Structure (SMILES) | AC50 [1] | cell number change [%] | AC50 [2] |
| --- | --- | --- | --- |
| CC(=O)c1sc(NC(=O)CCS(=O)(=O)c2ccc(Cl)cc2)nc1C | 2.31 µM [rising, partial curve] |  |  |
| COC(CNC(=O)C1CCCN(S(=O)(=O)c2c(C)noc2/C=C/c2cccs2)C1)OC (stereo unspecified) |  | -19 | 1.84 µM [falling, partial curve] |
| CC(=O)c1cccc(NC(=O)Cn2cnc(S(=O)(=O)N3CCC(C)CC3)c2)c1 |  | 21.9 |  |
| CSc1nc2ccccc2n1Cc1cccc([N+](=O)[O-])c1 | 29.1 µM [falling, single point] | -31.5 |  |
| CS/C(=N\N(C)C(N)=O)c1ccccc1 |  | -18.2 | 0.00517 µM [falling, full curve, poor fit] |
| COC(=O)/C=C1/N/C(=N\c2nc(C)cc(C)n2)N(c2cccc(C)c2)C1=O |  | -2.01 | 0.184 µM [falling, full curve, poor fit] |
| O=C(CSc1nnc2c(Cl)cc(Cl)cn12)NC1CCS(=O)(=O)C1 (stereo unspecified) |  |  | 0.58 µM [rising, full curve, poor fit] |
| COc1cc(CNCc2ccccn2)ccc1OCc1c(Cl)cccc1Cl |  | -11.6 |  |
| CCCCC(=O)N1C/C=C\C(c2ccc(OC)cc2)N(Cc2ccc(F)cc2)C(=O)C1 (stereo unspecified) |  | 0.955 | 29.1 µM [falling, single point] |
| CCCCCCOc1ccc(OC(=O)c2cccnc2)cc1 |  | -15.2 | 4.11 µM [rising, single point] |
| O=C(CCn1c(=O)oc2ccccc21)Nc1ccccc1 |  | 20.2 | 25.9 µM [rising, single point] |
| Cc1cc(C)c(NC(=O)CSc2nnc(-c3ccccn3)n2N)c(Cl)c1 |  | 13 | 0.116 µM [rising, full curve, poor fit] |
| Cc1ccc(S(=O)(=O)N(C)CC(=O)N2CCN(Cc3ccc4c(c3)OCO4)CC2)cc1 |  | 13.5 | 11.6 µM [falling, single point] |
| O=C(COC(=O)c1ccc[nH]c1=O)NCCCc1ccccc1 |  | 19.7 | 6.51 µM [falling, single point] |
| N#CCCN1CCN(S(=O)(=O)c2ccc(S(=O)(=O)NCc3ccccc3)cc2)CC1 | 29.1 µM [falling, single point] | -36.2 | 20.6 µM [falling, single point] |
| CCOC(=O)[C@@H]1[C@H]2COc3ccc(Br)cc3[C@H]2N2C(=O)N(c3cccc(Cl)c3)C(=O)[C@]12C | 20.6 µM [rising, partial curve] | 54.2 |  |
| CCN1CCN(c2ccc(S(=O)(=O)N3CCOCC3)cc2NC(=O)/C=C/c2ccc(OC)c(OC)c2)CC1 | 20.6 µM [rising, single point] | 70.6 |  |
| CC1CCC(NC(=O)Cn2cc3c(n2)CCCC3)CC1 (stereo unspecified) |  | 18.8 | 0.184 µM [falling, full curve] |
| Cc1ccc(Cl)c(NC(=O)CN2CCN(C=O)CC2)c1 |  |  | 0.58 µM [rising, single point] |
| COc1ccc([N+](=O)[O-])cc1NC(=O)COC(=O)c1ccccn1 | 0.461 µM [falling, single point] | -46.5 |  |
| CSc1ccccc1C(=O)C1CCCN(C(=O)c2cc(C(C)C)no2)C1 (stereo unspecified) |  |  | 0.0259 µM [rising, full curve, poor fit] |

| Structure (SMILES) | AC50 [1] | cell number change [%] | AC50 [2] |
| --- | --- | --- | --- |
| CCOc1ccc(/C=C/c2c([N+](=O)[O-])c(=O)n(C)c(=O)n2C)cc1 |  | -31.7 |  |
| CC1CC(C)CN(c2ncc3c(n2)CC(c2ccccc2Cl)CC3=O)C1 (stereo unspecified) | 4.61 µM [rising, single point] |  | 6.51 µM [rising, single point] |
| Cc1cc(C)cc(NC(=O)Cc2ccc(S(=O)(=O)N3CCCC3)s2)c1 | 23.1 µM [falling, partial curve] | -42 |  |
| COc1ccc(Cl)cc1NC(=O)c1nnn(CC(=O)Nc2ccc3c(c2)OCO3)c1N |  | 34 |  |
| CCC(C)c1ccc(NC(=S)NCc2cccs2)cc1 (stereo unspecified) | 0.00461 µM [falling, full curve] | -35.8 |  |
| Cc1cc(C)c(S(=O)(=O)N2CCOC2CNC(=O)C(=O)NCc2ccncc2)c(C)c1 (stereo unspecified) |  | -16.4 | 14.6 µM [falling, partial curve, poor fit] |
| CCN(Cc1ccccc1)S(=O)(=O)c1cc2[nH]c(=O)c(=O)[nH]c2cc1C |  | -6.92 | 0.259 µM [falling, partial curve, poor fit] |
| O=C(NN1CCOCC1)c1ccccc1 |  | -11.9 | 6.51 µM [rising, single point] |
| CN(C)CCN(C(=O)/C=C/c1cccs1)c1nc2c(F)cc(F)cc2s1 | 16.4 µM [falling, single point] | -30.6 | 20.6 µM [falling, partial curve] |
| COc1cc2c(cc1OC)C(c1ccccc1)N(C(=O)CSCC(=O)O)CC2 (stereo unspecified) |  |  | 0.58 µM [falling, single point] |
| CC(C)(C)c1ccc(C(=O)Nc2ccc(CN3CCS(=O)(=O)CC3)cc2)cc1 |  | -31.8 | 29.1 µM [falling, single point] |
| CC1CC(C(F)(F)C(F)(F)F)n2nc(C(=O)O)cc2N1 (stereo unspecified) | 0.0146 µM [rising, full curve] | 8.06 |  |
| Cc1snc(S(=O)(=O)Cc2ccccc2Cl)c1C#N |  | -23.3 | 18.4 µM [falling, partial curve] |
| CCOc1ccc(NC(=O)CCNS(=O)(=O)c2ccc(Br)s2)cc1 | 1.84 µM [rising, single point] | 4.14 | 3.26 µM [rising, partial curve] |
| COCC(=O)N(Cc1cc2ccc(C)cc2[nH]c1=O)c1ccc(C)cc1C |  | 12.8 |  |
| CC(C)CN(C(=O)c1ccc(-n2cncn2)c([N+](=O)[O-])c1)C1CCS(=O)(=O)C1 (stereo unspecified) | 2.31 µM [falling, full curve, poor fit] | -25 | 29.1 µM [rising, single point] |
| O=c1[nH]c2ccccc2c2ccccc12 | 18.4 µM [rising, single point] | 83.3 |  |
| CCNC(=O)/C(C#N)=C/c1c(N2CCN(C)CC2)nc2c(C)cccn2c1=O |  | -9.68 | 1.84 µM [rising, partial curve] |
| COc1ccc(C)cc1NC(=O)Nc1ccncc1 |  | -8.38 | 6.51 µM [falling, single point] |
| Cc1ccc2[nH]c(=O)c(CN(CC3CCCO3)S(=O)(=O)c3cccc4nsnc34)cc2c1 (stereo unspecified) |  | -8.55 | 8.2 µM [rising, partial curve] |
| CCS(=O)(=O)c1ccc(C(=O)Nc2ccccc2)c(Cl)c1Cl |  | 0.377 | 29.1 µM [rising, single point] |

Some of these compounds in order of molar mass, falling.

| Structure (SMILES) | AC50 [1] | cell number change [%] | AC50 [2] |
| --- | --- | --- | --- |
| CC(C)(C)c1ccc(C(=O)Nc2ccc(CN3CCS(=O)(=O)CC3)cc2)cc1 |  | -31.8 | 29.1 µM [falling, single point] |
| CCN(Cc1ccccc1)S(=O)(=O)c1cc2[nH]c(=O)c(=O)[nH]c2cc1C |  | -6.92 | 0.259 µM [falling, partial curve, poor fit] |
| COCC(=O)N(Cc1cc2ccc(C)cc2[nH]c1=O)c1ccc(C)cc1C |  | 12.8 |  |
| Cc1snc(S(=O)(=O)Cc2ccccc2Cl)c1C#N |  | -23.3 | 18.4 µM [falling, partial curve] |

(next part)

| Structure (SMILES) | AC50 [1] | cell number change [%] | AC50 [2] |
| --- | --- | --- | --- |
| O=C1CN(C(=O)c2cc(Br)c(Br)s2)c2ccccc2N1 | 11.6 µM [rising, partial curve] | 41.4 |  |
| O=C(O)CCn1c(Cc2ccccc2)nc2ccccc21 |  | -13.8 |  |
| O=C(Cn1cnc2c(oc3ccccc32)c1=O)NCc1ccco1 |  | 23 | 23.1 µM [falling, partial curve] |
| O=C(NNC(=O)c1ccccc1O)c1ccc(S(=O)(=O)Nc2ccccc2)cc1 |  | -4.49 |  |
| CCOc1ccc(S(=O)(=O)N2CCCC(C(=O)N3CCCC3)C2)cc1 (stereo unspecified) |  | 10.5 | 6.51 µM [falling, single point] |
| Cc1ccc(CNC(=O)C2CCCN2C(=O)Nc2cccc(Cl)c2)cc1 (stereo unspecified) |  | -8.14 |  |
| CSc1ccc(CN(C)C(=O)c2ccc(S(=O)(=O)Nc3ccccc3)cc2)cc1 |  | -2.51 | 23.1 µM [falling, single point] |
| O=C(NC1CCCc2ccccc21)C1CCN(S(=O)(=O)c2cccc3nonc23)CC1 (stereo unspecified) |  | -0.116 | 29.1 µM [rising, single point] |
| O=[N+]([O-])c1ccccc1S(=O)(=O)N1CCN(Cc2ccc3c(c2)OCO3)CC1 |  | -6.1 | 0.092 µM [rising, full curve, poor fit] |
| COc1ccc(NC(=O)COC(=O)c2ccc(S(=O)(=O)N3CCCC3)cc2)cc1OC | 1.64 µM [falling, full curve, poor fit] | -37.1 | 9.2 µM [falling, partial curve] |
| COc1cc([C@H](Cc2ccccc2)NC(C)=O)oc(=O)c1 | 14.6 µM [falling, partial curve, poor fit] | -34.5 | 29.1 µM [falling, single point] |
| COc1ccc(NC(=O)C2CCN(c3ncnc4c3nc3n4CCCCC3)CC2)c(OC)c1 |  | 31.3 |  |
| Cc1ccc(CNC(=O)C2(S(=O)(=O)c3ccc(C)cc3)CC2)cc1 |  | 4.76 | 6.51 µM [falling, single point] |
| CCSc1nnc(NC(=O)C2CC=CCC2C(=O)O)s1 (stereo unspecified) |  | 1.55 | 16.4 µM [falling, single point] |
| CCn1c(SCc2nc3ccccc3s2)nnc1-c1ccccc1 | 11.6 µM [rising, partial curve] | 82 | 6.51 µM [rising, partial curve] |
| Cc1ccc(NC(=O)C2CCCN(C(=O)c3ccc(Cl)cc3)C2)cc1 (stereo unspecified) |  | 4.69 |  |
| O=C(Nc1cc(Cl)cc(Cl)c1)Nc1cnccn1 | 0.206 µM [rising, full curve, poor fit] | -2.64 | 6.51 µM [falling, single point] |
| CC(=O)N1N=C(c2ccc3ccccc3c2)OC12CCCC2 | 6.51 µM [falling, single point] | -1.32 | 6.51 µM [falling, single point] |
| COc1ccc(Cn2c(C3CC3)nc3ccc(NC(C)=O)cc3c2=O)cc1 |  | -24.5 | 0.461 µM [rising, partial curve, poor fit] |
